Measured values from patent US20050053973A1 (published 2005).

Molecular target: CD28 on monkey PBMC (monkey)
Experiment: cell-based or functional assay

IC50, PBMC assay on monkey cells: 2 nM
B1: CD28-A7 (designed binder)
chain: CGPGRFQCESGQCIPATWVCDGENDCVDDSDEKSCATTAPTCGSGQFRCSNGNCLPLRLGCDGVDDCGDSSDEPLDPCAATVRT
